Source: paper PMC5793090 (Toxins, 2017)
Results are given in words; binding and its absence hold for the method and conditions named. Some entries that bind do so weakly or less than the wild type. For some assays here: Sequences can lack the tags named with a protein.

T1: Lu/BCAM on the surface of HeLa cells (human (endogenous in HeLa)) (UniProt P50895)
T1 sequence: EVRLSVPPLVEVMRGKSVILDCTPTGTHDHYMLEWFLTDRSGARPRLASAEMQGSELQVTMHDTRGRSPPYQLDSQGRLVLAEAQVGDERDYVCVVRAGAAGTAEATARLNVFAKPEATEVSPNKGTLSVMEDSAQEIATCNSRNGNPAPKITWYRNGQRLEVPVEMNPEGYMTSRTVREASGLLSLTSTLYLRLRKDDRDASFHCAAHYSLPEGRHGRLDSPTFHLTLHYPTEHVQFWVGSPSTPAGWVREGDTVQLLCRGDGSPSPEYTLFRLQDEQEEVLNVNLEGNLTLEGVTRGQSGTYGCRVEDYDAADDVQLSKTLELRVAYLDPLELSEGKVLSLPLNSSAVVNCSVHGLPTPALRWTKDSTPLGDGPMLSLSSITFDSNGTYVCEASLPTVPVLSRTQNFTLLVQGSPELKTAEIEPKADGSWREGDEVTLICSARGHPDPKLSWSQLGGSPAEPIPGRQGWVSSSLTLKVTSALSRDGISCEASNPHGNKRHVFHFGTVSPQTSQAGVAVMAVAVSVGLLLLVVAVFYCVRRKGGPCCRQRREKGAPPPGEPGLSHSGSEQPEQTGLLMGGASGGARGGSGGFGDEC

T2: Lu expressed on K562 cells (UniProt P50895)
T2 sequence: T1 sequence

B1: Recombinant human extracellular rLu/BCAM with Fc-tag (Fc fusion)
chain: EVRLSVPPLVEVMRGKSVILDCTPTGTHDHYMLEWFLTDRSGARPRLASAEMQGSELQVTMHDTRGRSPPYQLDSQGRLVLAEAQVGDERDYVCVVRAGAAGTAEATARLNVFAKPEATEVSPNKGTLSVMEDSAQEIATCNSRNGNPAPKITWYRNGQRLEVPVEMNPEGYMTSRTVREASGLLSLTSTLYLRLRKDDRDASFHCAAHYSLPEGRHGRLDSPTFHLTLHYPTEHVQFWVGSPSTPAGWVREGDTVQLLCRGDGSPSPEYTLFRLQDEQEEVLNVNLEGNLTLEGVTRGQSGTYGCRVEDYDAADDVQLSKTLELRVAYLDPLELSEGKVLSLPLNSSAVVNCSVHGLPTPALRWTKDSTPLGDGPMLSLSSITFDSNGTYVCEASLPTVPVLSRTQNFTLLVQGSPELKTAEIEPKADGSWREGDEVTLICSARGHPDPKLSWSQLGGSPAEPIPGRQGWVSSSLTLKVTSALSRDGISCEASNPHGNKRHVFHFGTVSPQTSQA
notes: also called rLu/BCAM-Fc; recombinant Lu/BCAM; source: bought: Hölzel Diagnostika Handels GmbH

What was measured:
[1] = target: T1, Lu/BCAM on the surface of HeLa cells (human (endogenous in HeLa)); experiment: flow cytometry on cells; competition: HeLa cells (3 × 10^5 in 1 mL medium) preincubated with unlabeled CNF proteins at different molar ratios, 30 min at 4 °C, washed, then DyLight488-labeled GST-CNF1; bound fluorescence against the control without preincubation; only the binder purified
[2] = target: T2, Lu expressed on K562 cells; experiment: flow cytometry on cells; only the binder purified
[3] = target: GST-CNF1 (730–1014) (Escherichia coli) (UniProt Q47106); experiment: far-Western, overlay or dot blot; CNF proteins spotted on a nitrocellulose membrane, incubated with 5 µM rLu/BCAM in TBST for 30 min, then blocked with 5% milk; bound rLu/BCAM detected with an anti-Lu/BCAM antibody; both purified
[4] = target: GST-CNF1 (726–1014) (Escherichia coli) (UniProt Q47106); experiment: as above
[5] = target: GST-CNF1 (K726S S727I) (Escherichia coli) (UniProt Q47106); experiment: as above

Row | Molecule | binding [1] | also measured
1 | GST-CNF1 (720–1014) (from UniProt Q47106 720-1014) (domain or fragment) | binds | –
2 | GST-CNF1 (726–1014) (from UniProt Q47106 726-1014) (domain or fragment) | binds | –
3 | GST-CNF1 (K726S S727I) (from UniProt Q47106 1-1014) | binds | –
4 | GST-CNF1 (full-length Cytotoxic Necrotizing Factor 1 of Escherichia coli as GST fusion) (from UniProt Q47106 1-1014) | binds | binding [2]: binds
5 | B1 | – | binding [3]: no binding (tested: 5 µM); binding [4]: binds weakly; binding [5]: binds
